Source: patent US20160151389A1 (priority 2014, published 2016)
For at least one compound, name, drawing or mass did not settle the structure.

System: ERK MAPK
Experiment: Phosphorylation of ERK MAPK in LPS-activated BV-2 microglia cells (western blot)
Format: cell-based, mouse
Settings: 10 μM, LPS-induced

SMILES: CC(C)[C@@H](C)/C=C/[C@@H](C)C1CCC2C3=CCC4C[C@@H](O)CC[C@]4(C)C3=CC[C@@]21C (stereo partly shown)
- phosphorylation level of ERK MAPK: inhibited
